Results: US20240115742A1, “FLUORINATED FIBERS FOR MULTIMODAL 1H AND 19F MRI, ULTRASOUND, FLUORESCENCE DETECTION AND CONFORMATIONAL AND TEMPERATURE DETECTION BY 19F MRS” (New York University, priority 2022, published 2024)
Where “and” joins values, the source holds several entries; their conditions need not be identical. Identical values can stand only once.

How the values were obtained:
[1] = ATR-FTIR peak deconvolution of secondary structure; assay type: physicochemical
Description: Attenuated Total Reflectance-Fourier Transform Infrared Spectroscopy. Secondary structure of protein fiber variants was confirmed using attenuated total reflectance-Fourier transform infrared (ATR-FTIR) spectroscopy using the Nicolet 6700 Fourier Transform Infrared Spectrometer equipped with a diamond ATR accessory and a mercury cadmium telluride (MCT)-A detector. Spectra were collected for 5 μL of 500 μM protein from 4000-400 cm^−1 with 0.5 cm^−1 increments at room temperature (RT). For CCM bound protein, protein was bound at a final concentration of 500 μM and saturated with CCM as determined by fluorescent spectroscopic drug binding with a final 1% v/v DMSO. Sample spectra were normalized using buffer background and analyzed from 1700-1600 cm^−1 corresponding to the amide I region. Peaks were deconvoluted using Gaussian functions in PeakFit software until the goodness of fit reached r^2≥0.99. Peaks were associated with secondary structure were determined by methods known in the art.
(§1) Attenuated Total Reflectance-Fourier Transform Infrared Spectroscopy. Secondary structure of Q2 protein was confirmed using attenuated total reflectance-Fourier transform infrared (ATR-FTIR) spectroscopy using the Nicolet 6700 Fourier Transform Infrared Spectrometer equipped with a diamond ATR accessory and a mercury cadmium telluride (MCT)-A detector. Spectra were collected for 5 μL of 2 mM protein from 4000-400 cm^−1 with 0.5 cm^−1 increments. Sample spectra were normalized using buffer background and analyzed from 1700-1600 cm^−1 corresponding to the amide I region. Peaks were deconvoluted using Gaussian functions in PeakFit software until the goodness of fit reached r^2>0.99.
as §1, with “of Q2LTF and QLTF” for “of Q2”, “using a” for “using the”, “of 1” for “of 2”, “with 4.0” for “with 0.5”, “reached r^2≥0.99.” for “reached r^2>0.99.”
Attenuated Total Reflectance-Fourier Transform Infrared Spectroscopy. Secondary structure before (solution) and after gelation (gel) was also assessed by peak deconvolution of attenuated total reflectance-Fourier transform infrared (ATR-FTIR) spectra. ATR-FTIR measurements were performed using a Nicolet 6700 Fourier Transform Infrared Spectrometer equipped with a mercury cadmium telluride (MCT)-A detector. Spectra were collected for 5 μL samples of protein at 2 mM from 4000-400 cm^−1 with a 4.0 cm^−1 resolution, normalized, and buffer-subtracted prior to analysis from 1700-1600 cm^−1, corresponding to the amide I region. ATR-FTIR measurements were performed immediately after concentration to 2 mM for solution measurements and after. Peaks were deconvoluted using Gaussian functions in PeakFit software until the goodness of fit reached r^2≥0.99.

[2] = Passive microrheology (multiple particle tracking); assay type: physicochemical; settings: 2 mM, 4 °C
Description: Microrheology. Protein was concentrated to 2 mM, as measured by BCA assay, and immediately aliquoted 27.7 μL into a 200 μL PCR tube. 1% v/v (or 0.3 μL) of […] red polystyrene fluorometric beads (FluoSpheres) were then added to the sample. A glass capillary tube was then loaded with sample by capillary action and sealed to prevent evaporation while being affixed to a microscopy slide using two-component fast-curing epoxy (JB Weld). Samples were then imaged at 0 h as a starting measurement and then every 12 h using a Leica DMI4000b inverted microscope equipped with a Leica DFC310 FX 1.4 megapixel camera at 40× magnification with 2×2 binning. Between imaging, slides were incubated on a rotisserie at 8 rpm to prevent sedimentation of the fluorometric beads. Each image series was recorded for a total of 300 frames with a lag time (i) of 0.037 s between each frame. Relaxation exponents i.e. the logarithmic slopes of particle mean-squared displacements (MSDs) with respect to lag time as determined by multiple particle tracking (MPT) analysis were used to determine when equilibration of the hydrogel was complete and measurements were no longer recorded (60 h in this case). Images were stacked and converted to grayscale in MATLAB (Mathworks, R2021a) using code developed in-house, with MPT then being employed using MATLAB code developed and modified by Dufresene, Kilfoil, Blair, and O'Neill as described previously.
Gelation kinetics of the hydrogels were assessed using passive microrheology (FIG. 61a-e). Time to gelation was measured immediately after concentration to 2 mM at 4° C. by incubating with 1 μm fluorescent tracer beads added to the protein in solution state at a final concentration of 1% (v/v). […] Mean square displacements (MSDs) of bead trajectories were analyzed periodically per the span of respective protein gelation times. An initial MSD-τ curve corresponding to a solution at 1.00 μm^2 s^−1 (consistent with Brownian motion) was used as the master solution curve and the final MSD-τ curve measured per protein gelation was selected as the master gel curve. Intermediate MSD-τ curves measured were superimposed onto either the master solution or master gel curve using horizontal and vertical shift factors, a and b, respectively. The window of sol-gel transition was determined between where a divergence in superposition occurred for each protein gelation.
Microrheology. Microrheology was used to assess gelation kinetics as described previously. Immediately after concentration to 2 mM, 29.7 uL were aliquoted with 0.3 uL of 1 um diameter FluoSpheres and loaded into glass capillary tubes (VitroCom). Samples were then imaged using an inverted fluorescent microscope (ZEISS Microscopy) at 40× magnification with 2×2 binning. Samples were incubated at 4° C. on a rotisserie at 8 rpm between measurements and imaged incrementally at select time points. […] Images were stacked, converted to greyscale, and analyzed with multiple particle tracking (MPT) in MATLAB (Mathworks, R2021a). Prior to other experiments of hydrogels in the gel state, microrheology here was used to confirm its complete transition.

Substance | 3-10 Helix ([1]; native) [%] | Turns/Coils (combined, random content) ([1]; native) [%] | Unordered ([1]; native) [%] | α-helix ([1]; native) | β-sheet ([1]; native) [%] | β-sheet (combined) ([1]; native) [%] | 3-10 Helix ([1]; w/CCM) [%] | Turns/Coils (combined) ([1]; w/CCM) [%] | Unordered ([1]; w/CCM) [%] | α-helix ([1]; w/CCM) [%] | β-sheet ([1]; w/CCM) [%] | β-sheet (combined) ([1]; w/CCM) [%] | critical gelation time, tc (tgel) [2] [h] | critical relaxation exponent, nc [2] | other results
Q: rationally designed pentameric coiled-coil derived from C, SEQ ID NO: 23 (MRGSHHHHHHGSIEGRVKEITFLKNTAPQMLRELQETNAALQDVRELLRQQSKL) [reference compound] | 19.1 | 25.1±10.3 | 0.0 | 32.8±4.2% and 32.8% | 29.2 | 42.4 ± 4.9 | 16.3 | 31.6 ± 3.8 | 0.0 | 32.9 | 32.5 | 40.3 ± 9.7 | 70.4 ± 0.1 | 0.53±0.03 | 
Q2: coiled-coil protein redesigned from Q for reduced lateral assembly, SEQ ID NO: 11 (MRGSHHHHHHGSIEGRVKELLFLKKTAEQMLEELKETNKALHDVRHLLENQSKL) [Protein Q2] | 8.4 | 23.7 ± 9.6 | 0.0 | 50.8±6.0% and 50.8% | 16.3 | 36.5 ± 6.2 | 16.9 | 26.7 ± 1.7 | 0.0 | 46.9 | 33.5 | 28.9 ± 13.6 | 26.6 ± 0.5 | 0.48±0.001 | 3-10 Helix ([1]; Gel, 2 mM): 5.4 % composition; Antiparallel β-sheet ([1]; Gel, 2 mM): 11.3 % composition; Unordered ([1]; Gel, 2 mM): 0.0 % composition; α-helix ([1]; Gel, 2 mM): 51.5 % composition; β-sheet ([1]; Gel, 2 mM): 29.5 % composition; 3-10 Helix ([1]; Solution, 2 mM): 8.8 % composition; Antiparallel β-sheet ([1]; Solution, 2 mM): 7.6 % composition; Unordered ([1]; Solution, 2 mM): 24.1 % composition; α-helix ([1]; Solution, 2 mM): 38.7 % composition; β-sheet ([1]; Solution, 2 mM): 18.7 % composition; change in random coil conformation upon gelation ([1]; solution to gel): −27.3%; change in β-sheet conformation upon gelation ([1]; solution to gel): +14.5%
